PMC7862700
The entries are a selection whose mix differs from that of the whole data set. For part of these data: At the low end of the ranking the order means little. The list shows a part of the results. For part of these data: Construct or isoform of the protein are uncertain.

Sequences of proteins named here, by UniProt entry; tags and fusion partners are left off. A change or cut given only in a name is not applied to a line headed by its entry.
UniProt Q00613: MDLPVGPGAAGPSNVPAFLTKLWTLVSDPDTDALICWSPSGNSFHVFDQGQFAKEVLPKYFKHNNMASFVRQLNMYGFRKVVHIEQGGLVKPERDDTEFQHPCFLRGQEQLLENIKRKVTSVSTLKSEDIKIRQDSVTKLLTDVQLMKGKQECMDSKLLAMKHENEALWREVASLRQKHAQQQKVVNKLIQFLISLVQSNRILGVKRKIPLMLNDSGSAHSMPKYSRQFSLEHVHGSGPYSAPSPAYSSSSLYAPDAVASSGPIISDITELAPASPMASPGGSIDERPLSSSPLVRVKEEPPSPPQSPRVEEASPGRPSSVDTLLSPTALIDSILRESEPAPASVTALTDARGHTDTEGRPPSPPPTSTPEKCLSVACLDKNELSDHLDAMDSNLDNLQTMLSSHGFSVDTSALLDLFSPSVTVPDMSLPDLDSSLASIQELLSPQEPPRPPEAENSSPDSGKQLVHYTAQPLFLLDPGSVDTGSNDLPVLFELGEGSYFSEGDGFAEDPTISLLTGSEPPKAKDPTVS

biological target: HSF1 (UniProt Q00613); assay: DAPPL (digital affinity profiling via proximity ligation, sequencing); conditions: 10 mM Tris-HCl pH 7.5, 50 mM NaCl, 1 mM DTT, 4% glycerol, room temperature, 30 min; GST-TFs on glutathione beads, 16-mer random dsDNA library, 0.1% …; high values mean tight binding; double strand, one strand shown; scale: fold enrichment (6-mer frequency, TF over GST control)

Row | Sequence | binding signal
1 | CCATGA | 0.787
2 | GTCTGT | 0.697
3 | GCTGGG | 0.672
4 | TCGGGC | 0.48
5 | GAATCG | 0.688
6 | AGCACC | 0.816
7 | GTACGT | 0.73
8 | CACAGA | 0.889
9 | AGCAAG | 0.903
10 | GACACG | 0.538
11 | AGCCCG | 0.808
12 | GACAAC | 0.713
13 | CCAGGC | 0.413
14 | GGAGCC | 0.263
15 | CCGTAG | 0.809
16 | AGACAC | 0.679
17 | GAGGGT | 0.519
18 | TGTCGT | 0.694
19 | TCGTGC | 0.701
20 | GCGTGA | 0.254

Row | Sequence | binding signal
21 | TGTGTC | 0.595
22 | GTCGTG | 0.309
23 | CGCATG | 0.658
24 | CCGTGT | 0.376
25 | AGTCCA | 0.68
26 | AGCCAA | 0.82
27 | GTCCGT | 0.363
28 | GGTGAC | 0.579
29 | GAGATC | 0.553
30 | GTAGTA | 0.813
31 | AACGGG | 0.621
32 | CGGTGC | 0.514
33 | CAACAG | 0.751
34 | CGTAGA | 0.836
35 | CCCAGG | 0.621
36 | GTGAGG | 0.223
37 | AGACAG | 0.489
38 | GCTGTG | 0.549
39 | CAGACG | 0.474

biological target: T1, ELF2 (UniProt Q15723); assay: as above; conditions: 10 mM Tris-HCl pH 7.5, 50 mM NaCl, 1 mM DTT, 4% glycerol, room temperature, 30 min; GST-TFs on glutathione beads, 16-mer random dsDNA library, 0.1% …; high values mean tight binding; double strand, one strand shown; scale: fold enrichment (6-mer frequency, TF over GST control)
T1 sequence: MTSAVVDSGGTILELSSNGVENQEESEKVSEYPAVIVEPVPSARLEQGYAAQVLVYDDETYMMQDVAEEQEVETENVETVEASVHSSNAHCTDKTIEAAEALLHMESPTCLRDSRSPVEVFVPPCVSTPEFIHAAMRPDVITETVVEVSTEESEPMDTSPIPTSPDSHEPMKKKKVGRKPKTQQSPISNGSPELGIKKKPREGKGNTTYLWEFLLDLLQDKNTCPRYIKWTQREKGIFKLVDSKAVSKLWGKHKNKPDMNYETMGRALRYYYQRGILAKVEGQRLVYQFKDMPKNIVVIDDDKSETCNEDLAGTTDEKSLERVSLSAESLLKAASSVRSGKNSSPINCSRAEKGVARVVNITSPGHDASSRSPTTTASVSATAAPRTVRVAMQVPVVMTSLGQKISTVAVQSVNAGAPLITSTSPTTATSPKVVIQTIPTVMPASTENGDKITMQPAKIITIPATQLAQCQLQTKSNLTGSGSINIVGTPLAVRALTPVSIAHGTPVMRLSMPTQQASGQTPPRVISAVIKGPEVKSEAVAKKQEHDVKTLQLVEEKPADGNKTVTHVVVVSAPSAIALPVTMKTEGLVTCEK

Row | Sequence | binding signal
40 | CCATGA | 0.797
41 | GTCTGT | 0.802
42 | GCTGGG | 0.74
43 | TCGGGC | 0.505
44 | GAATCG | 0.604
45 | AGCACC | 0.849
46 | GTACGT | 0.855
47 | CACAGA | 0.811
48 | AGCAAG | 0.916
49 | GACACG | 0.693
50 | AGCCCG | 0.873
51 | GACAAC | 0.911
52 | CCAGGC | 0.414
53 | GGAGCC | 0.311
54 | CCGTAG | 0.859
55 | AGACAC | 0.761
56 | GAGGGT | 0.498
57 | TGTCGT | 0.844
58 | TCGTGC | 0.749
59 | GCGTGA | 0.279

Row | Sequence | binding signal
60 | TGTGTC | 0.742
61 | GTCGTG | 0.365
62 | CGCATG | 0.613
63 | CCGTGT | 0.571
64 | AGTCCA | 0.688
65 | AGCCAA | 0.863
66 | GTCCGT | 0.516
67 | GGTGAC | 0.755
68 | GAGATC | 0.441
69 | GTAGTA | 0.905
70 | AACGGG | 0.698
71 | CGGTGC | 0.7
72 | CAACAG | 0.898
73 | CGTAGA | 0.693
74 | CCCAGG | 0.752
75 | GTGAGG | 0.254
76 | AGACAG | 0.495
77 | GCTGTG | 0.637
78 | CAGACG | 0.456
